US20090155251A1 (published 2009)
These are yes or no findings as the source states them, for the method shown. Some results given as binding are weak or reduced against the parent protein; the word gives no strength. Sequences can lack the tags named with a protein.

The chains behind the UniProt entries cited, without tags or fusion partners. Where a name states a change or a piece, a line headed by the entry shows the natural chain unless it says otherwise. Residues count along the entry.
UniProt P52799: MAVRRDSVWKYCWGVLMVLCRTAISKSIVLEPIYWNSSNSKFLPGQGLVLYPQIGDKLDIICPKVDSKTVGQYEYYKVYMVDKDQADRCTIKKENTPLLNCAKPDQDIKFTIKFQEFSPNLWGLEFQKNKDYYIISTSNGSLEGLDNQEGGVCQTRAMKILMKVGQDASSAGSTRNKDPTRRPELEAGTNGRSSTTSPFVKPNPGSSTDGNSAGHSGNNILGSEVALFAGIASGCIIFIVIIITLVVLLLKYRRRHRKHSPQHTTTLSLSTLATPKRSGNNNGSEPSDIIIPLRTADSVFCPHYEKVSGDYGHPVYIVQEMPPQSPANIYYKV
ephrin B2 on tumor cells of human Kaposi's sarcoma biopsy sections: residues 28-333 of P52799

T1: B4EC-AP reagent (protein fusion of EphB4 ectodomain with placental alkaline phosphatase) (UniProt P54760)
T1 sequence (looked up): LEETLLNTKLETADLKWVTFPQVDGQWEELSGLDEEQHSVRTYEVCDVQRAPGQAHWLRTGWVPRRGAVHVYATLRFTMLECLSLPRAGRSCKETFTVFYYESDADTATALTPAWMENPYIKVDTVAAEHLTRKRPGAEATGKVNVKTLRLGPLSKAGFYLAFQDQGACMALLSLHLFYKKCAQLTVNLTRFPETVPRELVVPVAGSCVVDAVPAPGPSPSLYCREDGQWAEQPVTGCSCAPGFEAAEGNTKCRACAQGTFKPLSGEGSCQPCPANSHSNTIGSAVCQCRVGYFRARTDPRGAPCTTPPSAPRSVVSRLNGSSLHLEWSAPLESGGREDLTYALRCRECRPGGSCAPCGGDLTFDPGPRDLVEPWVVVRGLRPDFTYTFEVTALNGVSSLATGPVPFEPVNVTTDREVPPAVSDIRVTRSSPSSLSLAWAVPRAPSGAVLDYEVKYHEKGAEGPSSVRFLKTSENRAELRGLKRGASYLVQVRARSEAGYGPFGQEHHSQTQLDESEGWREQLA


What was measured:
[1] = target: T1, B4EC-AP reagent (protein fusion of EphB4 ectodomain with placental alkaline phosphatase); experiment: biochemical assays: Protein A-agarose and nitrocellulose binding assay as for B4EC-FC (FIG. 8); AP probe not named
[2] = target: ephrin B2 on tumor cells of human Kaposi's sarcoma biopsy sections (human) (UniProt P52799); experiment: AP fusion staining of KS biopsy section

Molecule	binding [1]	binding [2]
B2EC-FC (Ephrin B2 extracellular domain fused to human IgG1 Fc) (from UniProt P52799 28-229) (Fc fusion)	binds	–
B4EC-AP reagent (protein fusion of EphB4 ectodomain with placental alkaline phosphatase) (receptor, UniProt P54760 16-539, looked up, not shown: large carriers) LEETLLNTKLETADLKWVTFPQVDGQWEELSGLDEEQHSVRTYEVCDVQRAPGQAHWLRTGWVPRRGAVHVYATLRFTMLECLSLPRAGRSCKETFTVFYYESDADTATALTPAWMENPYIKVDTVAAEHLTRKRPGAEATGKVNVKTLRLGPLSKAGFYLAFQDQGACMALLSLHLFYKKCAQLTVNLTRFPETVPRELVVPVAGSCVVDAVPAPGPSPSLYCREDGQWAEQPVTGCSCAPGFEAAEGNTKCRACAQGTFKPLSGEGSCQPCPANSHSNTIGSAVCQCRVGYFRARTDPRGAPCTTPPSAPRSVVSRLNGSSLHLEWSAPLESGGREDLTYALRCRECRPGGSCAPCGGDLTFDPGPRDLVEPWVVVRGLRPDFTYTFEVTALNGVSSLATGPVPFEPVNVTTDREVPPAVSDIRVTRSSPSSLSLAWAVPRAPSGAVLDYEVKYHEKGAEGPSSVRFLKTSENRAELRGLKRGASYLVQVRARSEAGYGPFGQEHHSQTQLDESEGWREQLA	–	binds
